For at least one compound, name, drawing or mass did not settle the structure.
System: Weanling male Sprague-Dawley derived rats
Assay: in vivo periosteal and endosteal bone apposition rates and endosteal resorption rates (tetracycline/DCAF double label, tibial sections)
Conditions: summary of the rat test table
Description: The following test was used to establish in vivo periosteal and endosteal bone apposition rates and endosteal resorption rates. The test method is a modification of the method of Baylink, et al., J. Clin. Invest.
Weanling male Sprague-Dawley derived rats weighing 50-60 grams (Charles River Breeding Labs, Wilmington, Massachusetts) were allowed 2-3 days to adapt to the laboratory environment before receiving any treatment. Throughout the adaptation and experimental periods the animals were allowed free access to tap water and food (Purina Lab Rat Chow, Ralston Purina Company, St. Louis, Missouri).
On the first day of the experiment all animals were given a subcutaneous injection of tetracycline hydrochloride at a dose of 20 mg/kg to label the skeleton. […]
These parameters were measured in tibial cross sections and in longitudinal sections through the proximal tibial epiphysis with a 5 mm micrometer which was superimposed optically over the section by placing it in the eyepiece of a microscope. […]
The width between fluorescent labels on the periosteal surface was established at 100x by making 4 measurements at 90. degree intervals around the circumference of the labeled area. […] Bone apposition rates were then calculated by dividing this value by the number of days over which the fluorescent labels were given (i.e. 7 days). […]

Question: With `O=P(O)(O)C(Cl)(Cl)P(=O)(O)O` [Cl2MDP, dichloro-methylene-diphosphonate] as the molecule, how does the “bone formation (conclusion in words)” value read?
Answer: does not enhance bone formation
